In publication PMC4707031:
These are yes or no findings as the source states them, for the method shown. Binding seen in cells or lysates may run through a third protein. Some entries that bind do so weakly or less than the wild type. Where a sequence is shown, tags or fusion partners need not be part of it.

Protein sequences, listed by entry. Tags and fused reporters are not part of them.
UniProt P49674: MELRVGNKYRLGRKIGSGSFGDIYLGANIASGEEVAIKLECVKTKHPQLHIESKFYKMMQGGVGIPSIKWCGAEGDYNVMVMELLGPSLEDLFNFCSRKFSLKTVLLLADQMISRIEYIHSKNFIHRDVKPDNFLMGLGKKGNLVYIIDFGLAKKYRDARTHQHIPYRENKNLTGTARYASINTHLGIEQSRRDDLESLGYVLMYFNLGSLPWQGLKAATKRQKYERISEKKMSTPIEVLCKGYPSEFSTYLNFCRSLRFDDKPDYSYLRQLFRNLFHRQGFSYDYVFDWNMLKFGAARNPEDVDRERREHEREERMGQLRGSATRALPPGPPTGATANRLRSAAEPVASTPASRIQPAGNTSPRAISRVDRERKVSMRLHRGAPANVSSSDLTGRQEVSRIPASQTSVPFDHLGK

T1: C-terminal FLAG-tagged mouse FAM83H (pCMV-Tag4A-Fam83h) (mouse) (UniProt Q148V8)
T1 sequence: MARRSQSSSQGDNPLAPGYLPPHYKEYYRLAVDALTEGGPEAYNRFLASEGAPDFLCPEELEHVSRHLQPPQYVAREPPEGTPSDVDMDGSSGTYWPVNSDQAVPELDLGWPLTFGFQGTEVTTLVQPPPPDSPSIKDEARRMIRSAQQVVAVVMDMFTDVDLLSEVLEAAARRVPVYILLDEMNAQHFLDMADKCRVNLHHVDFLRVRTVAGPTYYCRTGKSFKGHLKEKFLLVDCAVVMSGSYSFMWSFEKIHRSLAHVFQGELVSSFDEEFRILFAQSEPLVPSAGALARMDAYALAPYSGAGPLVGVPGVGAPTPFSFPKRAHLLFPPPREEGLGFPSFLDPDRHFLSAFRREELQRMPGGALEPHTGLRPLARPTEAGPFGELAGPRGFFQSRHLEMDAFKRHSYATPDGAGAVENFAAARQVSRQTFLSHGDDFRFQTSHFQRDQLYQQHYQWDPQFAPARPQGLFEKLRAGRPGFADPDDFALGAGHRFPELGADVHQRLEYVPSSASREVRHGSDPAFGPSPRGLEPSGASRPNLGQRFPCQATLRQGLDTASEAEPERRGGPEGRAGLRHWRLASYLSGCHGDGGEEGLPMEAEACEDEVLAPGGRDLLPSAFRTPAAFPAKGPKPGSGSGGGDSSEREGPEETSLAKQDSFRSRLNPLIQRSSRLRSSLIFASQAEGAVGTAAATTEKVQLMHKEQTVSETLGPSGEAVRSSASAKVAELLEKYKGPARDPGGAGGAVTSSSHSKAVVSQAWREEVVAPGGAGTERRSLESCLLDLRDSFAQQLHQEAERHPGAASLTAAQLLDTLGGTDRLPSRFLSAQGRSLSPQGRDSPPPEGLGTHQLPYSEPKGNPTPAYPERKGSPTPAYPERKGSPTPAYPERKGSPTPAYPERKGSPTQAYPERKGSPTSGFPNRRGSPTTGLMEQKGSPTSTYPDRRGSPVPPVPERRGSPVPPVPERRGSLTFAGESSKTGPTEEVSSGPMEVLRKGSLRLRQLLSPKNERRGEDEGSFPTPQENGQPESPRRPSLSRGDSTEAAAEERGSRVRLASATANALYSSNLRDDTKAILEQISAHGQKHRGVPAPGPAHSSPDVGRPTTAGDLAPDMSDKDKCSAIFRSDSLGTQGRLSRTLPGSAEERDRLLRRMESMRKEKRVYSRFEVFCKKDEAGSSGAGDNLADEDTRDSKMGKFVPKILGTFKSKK

T2: N-terminal FLAG-tagged full-length mouse FAM83H (pCMV-Tag2B-Fam83h) (mouse) (UniProt Q148V8)
T2 sequence: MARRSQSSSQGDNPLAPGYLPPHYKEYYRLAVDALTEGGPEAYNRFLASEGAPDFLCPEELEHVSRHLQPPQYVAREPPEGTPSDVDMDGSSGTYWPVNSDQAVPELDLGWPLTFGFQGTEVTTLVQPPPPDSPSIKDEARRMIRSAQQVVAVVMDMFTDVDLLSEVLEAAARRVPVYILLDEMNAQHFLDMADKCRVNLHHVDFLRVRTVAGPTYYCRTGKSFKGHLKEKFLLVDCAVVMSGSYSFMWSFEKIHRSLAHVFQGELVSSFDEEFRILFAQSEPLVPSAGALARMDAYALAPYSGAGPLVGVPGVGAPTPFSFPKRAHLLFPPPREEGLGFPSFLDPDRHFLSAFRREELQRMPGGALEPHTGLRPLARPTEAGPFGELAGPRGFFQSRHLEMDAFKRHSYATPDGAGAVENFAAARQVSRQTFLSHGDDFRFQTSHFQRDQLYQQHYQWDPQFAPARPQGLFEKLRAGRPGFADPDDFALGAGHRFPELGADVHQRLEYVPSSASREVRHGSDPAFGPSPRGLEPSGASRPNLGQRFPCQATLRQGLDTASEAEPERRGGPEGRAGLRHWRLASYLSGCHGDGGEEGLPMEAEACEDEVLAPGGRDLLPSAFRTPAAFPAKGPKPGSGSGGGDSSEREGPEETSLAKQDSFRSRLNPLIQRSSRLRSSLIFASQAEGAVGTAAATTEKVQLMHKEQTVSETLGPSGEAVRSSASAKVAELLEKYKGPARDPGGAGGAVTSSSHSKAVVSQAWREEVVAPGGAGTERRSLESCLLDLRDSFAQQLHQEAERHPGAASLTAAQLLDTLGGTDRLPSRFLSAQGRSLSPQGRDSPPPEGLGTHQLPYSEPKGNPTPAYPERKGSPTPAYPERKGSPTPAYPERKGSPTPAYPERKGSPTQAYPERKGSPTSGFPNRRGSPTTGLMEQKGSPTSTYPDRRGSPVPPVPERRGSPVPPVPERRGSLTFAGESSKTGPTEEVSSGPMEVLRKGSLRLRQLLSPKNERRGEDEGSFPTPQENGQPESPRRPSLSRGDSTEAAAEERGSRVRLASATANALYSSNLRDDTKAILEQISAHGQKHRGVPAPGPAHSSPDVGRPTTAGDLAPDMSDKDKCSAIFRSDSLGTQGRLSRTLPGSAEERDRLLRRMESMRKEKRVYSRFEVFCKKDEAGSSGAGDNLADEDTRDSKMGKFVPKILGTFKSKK

T3: N-terminal FLAG-tagged mouse FAM83H^1-287 (pCMV-Tag2B-Fam83h^1-287) (mouse) (UniProt Q148V8)
T3 sequence: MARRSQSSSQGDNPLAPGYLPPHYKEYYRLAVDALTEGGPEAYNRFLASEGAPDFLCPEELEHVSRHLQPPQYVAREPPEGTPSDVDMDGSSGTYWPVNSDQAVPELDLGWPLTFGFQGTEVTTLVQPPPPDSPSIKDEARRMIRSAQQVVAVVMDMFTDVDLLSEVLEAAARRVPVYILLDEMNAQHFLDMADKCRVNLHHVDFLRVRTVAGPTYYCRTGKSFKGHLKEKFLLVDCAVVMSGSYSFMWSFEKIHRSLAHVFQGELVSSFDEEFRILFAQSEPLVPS

T4: N-terminal FLAG-tagged mouse FAM83H^1-697 (pCMV-Tag2B-Fam83h^1-697) (mouse) (UniProt Q148V8)
T4 sequence: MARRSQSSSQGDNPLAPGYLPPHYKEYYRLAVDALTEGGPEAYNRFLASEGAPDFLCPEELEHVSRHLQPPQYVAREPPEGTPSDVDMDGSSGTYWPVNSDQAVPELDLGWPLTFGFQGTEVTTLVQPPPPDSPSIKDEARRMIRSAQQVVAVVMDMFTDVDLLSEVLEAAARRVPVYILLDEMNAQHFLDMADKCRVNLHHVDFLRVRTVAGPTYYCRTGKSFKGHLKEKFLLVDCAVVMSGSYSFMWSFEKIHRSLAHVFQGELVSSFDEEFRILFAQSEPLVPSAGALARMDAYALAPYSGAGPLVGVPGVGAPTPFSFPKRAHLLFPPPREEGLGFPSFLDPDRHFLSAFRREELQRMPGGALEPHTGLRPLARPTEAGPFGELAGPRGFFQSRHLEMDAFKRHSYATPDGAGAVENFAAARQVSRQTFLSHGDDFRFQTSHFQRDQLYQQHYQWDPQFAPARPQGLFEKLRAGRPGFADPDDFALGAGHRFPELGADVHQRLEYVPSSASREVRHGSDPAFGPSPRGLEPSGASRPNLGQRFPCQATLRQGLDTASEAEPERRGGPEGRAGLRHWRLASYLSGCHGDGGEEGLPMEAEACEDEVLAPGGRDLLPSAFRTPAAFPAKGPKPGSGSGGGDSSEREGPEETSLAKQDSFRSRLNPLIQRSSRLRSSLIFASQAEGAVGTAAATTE

B1: C-terminal Myc-tagged mouse FAM83H (pCMV-Tag5A-Fam83h) (protein, UniProt Q148V8 1-1209)
chain: MARRSQSSSQGDNPLAPGYLPPHYKEYYRLAVDALTEGGPEAYNRFLASEGAPDFLCPEELEHVSRHLQPPQYVAREPPEGTPSDVDMDGSSGTYWPVNSDQAVPELDLGWPLTFGFQGTEVTTLVQPPPPDSPSIKDEARRMIRSAQQVVAVVMDMFTDVDLLSEVLEAAARRVPVYILLDEMNAQHFLDMADKCRVNLHHVDFLRVRTVAGPTYYCRTGKSFKGHLKEKFLLVDCAVVMSGSYSFMWSFEKIHRSLAHVFQGELVSSFDEEFRILFAQSEPLVPSAGALARMDAYALAPYSGAGPLVGVPGVGAPTPFSFPKRAHLLFPPPREEGLGFPSFLDPDRHFLSAFRREELQRMPGGALEPHTGLRPLARPTEAGPFGELAGPRGFFQSRHLEMDAFKRHSYATPDGAGAVENFAAARQVSRQTFLSHGDDFRFQTSHFQRDQLYQQHYQWDPQFAPARPQGLFEKLRAGRPGFADPDDFALGAGHRFPELGADVHQRLEYVPSSASREVRHGSDPAFGPSPRGLEPSGASRPNLGQRFPCQATLRQGLDTASEAEPERRGGPEGRAGLRHWRLASYLSGCHGDGGEEGLPMEAEACEDEVLAPGGRDLLPSAFRTPAAFPAKGPKPGSGSGGGDSSEREGPEETSLAKQDSFRSRLNPLIQRSSRLRSSLIFASQAEGAVGTAAATTEKVQLMHKEQTVSETLGPSGEAVRSSASAKVAELLEKYKGPARDPGGAGGAVTSSSHSKAVVSQAWREEVVAPGGAGTERRSLESCLLDLRDSFAQQLHQEAERHPGAASLTAAQLLDTLGGTDRLPSRFLSAQGRSLSPQGRDSPPPEGLGTHQLPYSEPKGNPTPAYPERKGSPTPAYPERKGSPTPAYPERKGSPTPAYPERKGSPTQAYPERKGSPTSGFPNRRGSPTTGLMEQKGSPTSTYPDRRGSPVPPVPERRGSPVPPVPERRGSLTFAGESSKTGPTEEVSSGPMEVLRKGSLRLRQLLSPKNERRGEDEGSFPTPQENGQPESPRRPSLSRGDSTEAAAEERGSRVRLASATANALYSSNLRDDTKAILEQISAHGQKHRGVPAPGPAHSSPDVGRPTTAGDLAPDMSDKDKCSAIFRSDSLGTQGRLSRTLPGSAEERDRLLRRMESMRKEKRVYSRFEVFCKKDEAGSSGAGDNLADEDTRDSKMGKFVPKILGTFKSKK

Tests used:
[1] = biological target: T1, C-terminal FLAG-tagged mouse FAM83H (pCMV-Tag4A-Fam83h) (mouse); assay: co-IP; Mouse FAM83H-FLAG expressed in HEK293 cells; anti-FLAG immunoprecipitation from lysate; immunoblot for endogenous CK1δ and CK1ε
[2] = biological target: T1, C-terminal FLAG-tagged mouse FAM83H (pCMV-Tag4A-Fam83h) (mouse); assay: co-IP; FLAG-tagged FAM83H construct and Myc-tagged partner co-expressed in HEK293 cells; NP40 lysate; anti-FLAG antibody on protein A Dynabeads, 30 min at room temperature, washed twice; immunoblot with anti-Myc (or anti-CK1ε)
[3] = biological target: T2, N-terminal FLAG-tagged full-length mouse FAM83H (pCMV-Tag2B-Fam83h) (mouse); assay: as above
[4] = biological target: T3, N-terminal FLAG-tagged mouse FAM83H^1-287 (pCMV-Tag2B-Fam83h^1-287) (mouse); assay: as above
[5] = biological target: T4, N-terminal FLAG-tagged mouse FAM83H^1-697 (pCMV-Tag2B-Fam83h^1-697) (mouse); assay: as above

| binding [1] | binding [2] | binding [3] | binding [4] | binding [5] | Molecule |
| --- | --- | --- | --- | --- | --- |
| binds |  |  |  |  | Casein kinase 1 epsilon (CK1ε), endogenous in HEK293 cells (from UniProt P49674 1-416) (enzyme) |
|  | binds | binds | binds | binds | B1 |
